We go through one compound from ChEMBL document CHEMBL1126858, “Synthesis of (R,S)-trans-8-hydroxy-2-[N-n-propyl-N-(3'-iodo-2'-propenyl)amino]tetral in (trans-8-OH-PIPAT): a new 5-HT1A receptor ligand” (J Med Chem, 1993).

Usually Ki stands for the dissociation constant of the complex between target and ligand, obtained from inhibition or displacement. Low values mean higher affinity, high ones lower affinity.

This experiment has as its target T1, 5-hydroxytryptamine receptor 1A (Rattus norvegicus, UniProt P19327).
T1 sequence (P19327 whole entry): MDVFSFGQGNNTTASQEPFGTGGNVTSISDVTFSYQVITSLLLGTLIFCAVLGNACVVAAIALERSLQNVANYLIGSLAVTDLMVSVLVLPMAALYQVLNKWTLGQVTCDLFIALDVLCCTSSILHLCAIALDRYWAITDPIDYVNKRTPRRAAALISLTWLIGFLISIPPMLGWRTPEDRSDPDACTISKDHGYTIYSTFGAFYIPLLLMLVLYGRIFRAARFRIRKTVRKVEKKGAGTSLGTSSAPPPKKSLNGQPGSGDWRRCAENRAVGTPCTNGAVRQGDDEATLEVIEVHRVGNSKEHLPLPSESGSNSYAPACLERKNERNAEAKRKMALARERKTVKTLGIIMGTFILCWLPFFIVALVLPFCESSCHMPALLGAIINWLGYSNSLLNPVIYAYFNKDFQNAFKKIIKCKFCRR
The experiment is described as follows: Binding affinity towards 5-hydroxytryptamine 1A receptor by the displacement of [125I]trans-8-OH-PIPAT in membrane homogenates of hippocampal tissue of rat brain. It counts as tissue-based, Hippocampus. In general terms: In a radioligand displacement assay an active substance lowers the binding of a labelled ligand.

In turn, `CC(C)NCC(O)COc1cccc2ccccc12` (racemic) [PROPRANOLOL] gave a Ki of 0.113 µM.
